Laboratory results from the supplement of paper PMC3334620.
In all, about 33,000 sequences were measured (“E-score (-0.5 to 0.5)”: median about -0.0014, highest 2% from about 0.25 on). Some of the results follow.

Target: T1, Cad1 (UniProt P24813)
T1 sequence: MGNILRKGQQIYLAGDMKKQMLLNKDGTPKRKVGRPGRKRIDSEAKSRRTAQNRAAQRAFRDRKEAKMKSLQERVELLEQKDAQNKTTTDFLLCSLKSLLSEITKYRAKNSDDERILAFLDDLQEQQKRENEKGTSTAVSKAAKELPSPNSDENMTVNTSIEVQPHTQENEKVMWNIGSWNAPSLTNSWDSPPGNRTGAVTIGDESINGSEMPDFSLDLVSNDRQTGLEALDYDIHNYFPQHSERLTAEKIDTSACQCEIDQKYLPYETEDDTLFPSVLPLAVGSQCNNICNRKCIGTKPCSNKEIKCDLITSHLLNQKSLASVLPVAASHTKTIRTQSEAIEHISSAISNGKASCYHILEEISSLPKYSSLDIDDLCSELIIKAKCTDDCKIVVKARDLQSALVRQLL
Assay: PBM E-score (8-mer binding enrichment) (E-score (-0.5 to 0.5)); higher = stronger / more preferred TF binding
Settings: protein concentration: 100 nM; construct: GST-full length
Outline: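 For each ungapped eight-base word taken together with its reverse complement, the Universal PBM Analysis Suite assigned an E-score. Binding data came from GST-tagged yeast transcription factors, applied at about 100-200 nM, on universal all-10-mer Agilent arrays made double-stranded by primer extension. Fluorescent anti-GST marked bound protein, and scans were normalised with masliner.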

Row | Sequence | PBM E-score
1 | CCCGGTTC | -0.0704
2 | AAACCGCA | -0.213
3 | GACCCTGA | -0.167
4 | CATCTATC | 0.0193
5 | TCGGGACA | -0.11
6 | AGTAGGTG | -0.0552
7 | GTCTCAGA | -0.138
8 | CGATAAAC | -0.0544
9 | GGAAAACA | 0.18
10 | GATTGGGC | 0.0731
11 | CTCTATCA | -0.0671
12 | CAAACGTA | 0.158
13 | ACTGACCT | -0.056
14 | GTACCGTA | -0.0406
15 | GCGTCAGC | 0.156
16 | GCTTGCCC | -0.263
17 | CGCTATAC | 0.0438
18 | AGGCTACC | -0.0565
19 | CAGTACGG | -0.132
20 | ATGTTTTG | -0.0921
21 | GAGAATTA | 0.133
22 | GTATGTTA | 0.0252
23 | AAGATATT | 0.153
24 | CGACTCGC | -0.116

Row | Sequence | PBM E-score
25 | GATTAGTA | 0.31
26 | ACCTCCGG | 0.107
27 | AGAATCCA | -0.0993
28 | GGGGAATA | 0.00396
29 | TAAAACAA | 0.0793
30 | GATTAATA | 0.354
31 | ACCAGACC | -0.0167
32 | CCAACGAC | -0.0828
33 | ATAACGAC | 0.189
34 | ATCTAAGC | 0.0466
35 | CATACTAG | 0.129
36 | ATGTTGCG | -0.0325
37 | AGATCAAC | 0.00235
38 | AGGTACCA | -0.0873
39 | GCCGAGTA | -0.104
40 | ATCCAACA | 0.01
41 | CCTGTATC | -0.0801
42 | AAGGGAAA | -0.151
43 | CCGAAGCG | -0.22
44 | AACGGGGG | -0.323
45 | ATGGTGTG | -0.0227
46 | ACTTCCAC | 0.00186
47 | GCTTTCAC | 0.0102
48 | ACGAGGCC | -0.18

Individual results from above.
Entry of ACCTCCGG under PBM E-score: 0.107
Entry of ATAACGAC under PBM E-score: 0.189
Entry of AGGTACCA under PBM E-score: -0.0873
Entry of ATGGTGTG under PBM E-score: -0.0227

Continuation.

Row | Sequence | PBM E-score
49 | AACACAAC | 0.143
50 | AAAGCAAT | 0.246
51 | TGTCCTAA | -0.00923
52 | AAATACCA | 0.182
53 | GAAGCTAC | 0.152
54 | GGGGCGAA | -0.162
55 | AGAGTATC | -0.0123
56 | GGCTTACA | 0.229
57 | AAGGGACA | -0.115
58 | TACGTATA | 0.133
59 | GGATGGCA | 0.169
60 | ATTGTGTG | -0.0643
61 | ACCTCCGA | -0.176
62 | ACTGTGCG | 0.168
63 | ACAACTCT | -0.0986
64 | ACAACTGA | -0.101
65 | AGGTTTTG | -0.174
66 | CCCACACG | -0.0387
67 | CACCCCCG | -0.28
68 | ACCGGTGA | -0.143
69 | GCCCTCCA | -0.231
70 | CCATTACG | -0.137
71 | ATCTACCC | 0.0218
72 | ACGTGTCC | -0.12

Row | Sequence | PBM E-score
73 | GCTCAACC | -0.0661
74 | GAAATTGA | 0.139
75 | AGTAAGAA | 0.231
76 | AAGAGAAA | -0.0361
77 | CTAGCTGA | 0.00706
78 | AGTTATCC | 0.126
79 | TGCGGGAA | 0.0933
80 | AAGACCTG | -0.053
81 | AAAGCGAG | 0.128
82 | GCATTCTA | 0.0158
83 | AAAGCACG | -0.143
84 | CGAAAGGA | -0.142
85 | CACCCCCA | -0.194
86 | AACCGCTG | -0.0505
87 | AATACCAG | 0.144
88 | CCAAACAC | 0.0412
89 | GCGTGGGA | -0.0577
90 | GGGCCGGA | -0.286
91 | ATACCAGA | 0.0253
92 | ACCAGACG | 0.0499
93 | GGTGCAAA | -0.121
94 | ACCCTCCT | -0.27
